Measured values from article PMC5973263.

The chains behind the UniProt entries cited, without tags or fusion partners. Residues count along the entry.
UniProt D4A5I9, residues 1046-1285: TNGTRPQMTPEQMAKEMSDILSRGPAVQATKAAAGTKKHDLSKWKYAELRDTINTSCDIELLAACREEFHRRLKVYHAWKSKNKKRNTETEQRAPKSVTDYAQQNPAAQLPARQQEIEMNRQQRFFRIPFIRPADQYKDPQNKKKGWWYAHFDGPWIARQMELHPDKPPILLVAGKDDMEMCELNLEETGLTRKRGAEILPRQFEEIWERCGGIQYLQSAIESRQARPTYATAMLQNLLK
UniProt P04785, residues 20-509: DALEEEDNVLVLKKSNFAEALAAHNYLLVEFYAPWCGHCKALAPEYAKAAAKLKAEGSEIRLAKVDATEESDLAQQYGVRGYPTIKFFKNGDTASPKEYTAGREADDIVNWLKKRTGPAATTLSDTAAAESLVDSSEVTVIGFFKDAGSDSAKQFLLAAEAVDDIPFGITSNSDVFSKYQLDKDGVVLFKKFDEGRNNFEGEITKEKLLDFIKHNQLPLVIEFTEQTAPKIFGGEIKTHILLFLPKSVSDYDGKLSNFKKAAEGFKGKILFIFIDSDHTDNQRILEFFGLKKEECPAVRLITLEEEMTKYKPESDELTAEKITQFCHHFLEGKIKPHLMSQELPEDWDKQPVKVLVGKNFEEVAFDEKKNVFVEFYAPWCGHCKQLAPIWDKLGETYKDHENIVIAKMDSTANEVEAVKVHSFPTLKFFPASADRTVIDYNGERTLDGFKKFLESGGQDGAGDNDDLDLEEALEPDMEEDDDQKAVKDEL
UniProt Q6IMY8: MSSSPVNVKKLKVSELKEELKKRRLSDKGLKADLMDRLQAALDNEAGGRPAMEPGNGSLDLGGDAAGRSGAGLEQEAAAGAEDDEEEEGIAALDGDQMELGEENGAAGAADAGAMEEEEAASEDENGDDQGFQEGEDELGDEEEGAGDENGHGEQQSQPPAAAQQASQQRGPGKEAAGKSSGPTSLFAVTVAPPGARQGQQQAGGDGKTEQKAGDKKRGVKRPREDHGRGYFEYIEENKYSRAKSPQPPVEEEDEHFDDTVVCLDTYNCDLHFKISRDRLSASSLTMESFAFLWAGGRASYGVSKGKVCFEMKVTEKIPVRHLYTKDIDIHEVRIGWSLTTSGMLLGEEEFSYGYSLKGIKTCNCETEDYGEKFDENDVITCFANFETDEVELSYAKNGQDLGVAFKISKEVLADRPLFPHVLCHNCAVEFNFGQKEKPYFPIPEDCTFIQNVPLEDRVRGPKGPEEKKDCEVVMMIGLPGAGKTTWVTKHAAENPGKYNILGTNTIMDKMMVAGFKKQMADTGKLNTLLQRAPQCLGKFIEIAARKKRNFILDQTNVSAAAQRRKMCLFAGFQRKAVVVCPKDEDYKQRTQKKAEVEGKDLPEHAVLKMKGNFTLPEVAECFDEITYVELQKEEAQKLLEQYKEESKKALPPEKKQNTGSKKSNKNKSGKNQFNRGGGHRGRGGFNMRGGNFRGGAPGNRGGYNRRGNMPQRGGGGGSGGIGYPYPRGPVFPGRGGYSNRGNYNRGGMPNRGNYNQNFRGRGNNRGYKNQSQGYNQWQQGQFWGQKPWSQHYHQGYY
UniProt P15865: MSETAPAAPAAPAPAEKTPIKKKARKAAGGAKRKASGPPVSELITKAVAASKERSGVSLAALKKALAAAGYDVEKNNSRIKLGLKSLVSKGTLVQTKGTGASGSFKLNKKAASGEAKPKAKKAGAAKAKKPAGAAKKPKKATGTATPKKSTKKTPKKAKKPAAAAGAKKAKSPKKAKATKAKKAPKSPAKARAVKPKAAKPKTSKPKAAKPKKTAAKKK
UniProt P13383: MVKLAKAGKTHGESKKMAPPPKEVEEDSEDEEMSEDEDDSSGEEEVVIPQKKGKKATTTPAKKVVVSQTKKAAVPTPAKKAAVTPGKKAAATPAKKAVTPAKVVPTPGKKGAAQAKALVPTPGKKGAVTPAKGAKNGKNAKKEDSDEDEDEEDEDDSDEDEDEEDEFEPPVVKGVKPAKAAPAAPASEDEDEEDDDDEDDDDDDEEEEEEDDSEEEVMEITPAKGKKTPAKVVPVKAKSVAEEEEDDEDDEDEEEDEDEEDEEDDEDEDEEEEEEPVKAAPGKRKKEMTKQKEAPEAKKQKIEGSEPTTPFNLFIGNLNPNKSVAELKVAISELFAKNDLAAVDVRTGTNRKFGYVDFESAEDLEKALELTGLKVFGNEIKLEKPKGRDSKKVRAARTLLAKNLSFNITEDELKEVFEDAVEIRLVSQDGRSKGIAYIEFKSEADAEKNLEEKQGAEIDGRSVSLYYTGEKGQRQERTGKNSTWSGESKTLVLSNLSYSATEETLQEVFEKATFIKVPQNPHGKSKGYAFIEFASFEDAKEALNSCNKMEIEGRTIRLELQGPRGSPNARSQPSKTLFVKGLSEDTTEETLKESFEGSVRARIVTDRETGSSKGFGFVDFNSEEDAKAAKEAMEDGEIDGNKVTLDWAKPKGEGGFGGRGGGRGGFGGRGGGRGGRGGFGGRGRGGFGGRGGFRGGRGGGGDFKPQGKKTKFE

B1: heterogeneous nuclear ribonucleoprotein M isoform b (protein, UniProt Q62826 1-690)
chain: MAAGVEAAAEVAATEPKMEEESGAPCVPSGNGAPVPKGEERPTQNEKRKEKNIKRGGNRFEPYANPTKRYRAFITNIPFDVKWQSLKDLVKEKVGEVTYVELLMDAEGKSRGCAVVEFKMEESMKKAAEVLNKHSLSGRPLKVKEDPDGEHARRAMQKAGRLGSTVFVANLDYKVGWKKLKEVFSMAGVVVRADILEDKDGKSRGIGTVTFEQSIEAVQAISMFNGQLLFDRPMHVKMDERALPKGDFFPPERPQQLPHGLGGIGMGLGPGGQPIDANHLNKGIGMGNLGPAGMGMEGIGFGINKIGGMEGPFGGGMENMGRFGSGMNMGRINEILSNALKRGEIIAKQGGSGAGGSVPGIERMGPGIDRISGAGMERMGAGLGHGMDRVGSEIERMGLVMDRMGSVERMGSGIERMGPLGLDHMASSIERMGQTMERIGSGVERMGAGMGFGLERMAAPIDRVGQTIERMGSGVERMGPAIERMGLSMDRMVPTGMGAGLERMGPVMDRMATGLERMGANNLERMGLERMGANSLERMGLERMGANSLERMGPAMGPALGAGIERMGLAMGGAGGASFDRTIEMERGNFGGSFAGSFGGAGGHAPGVARKACQIFVRNLPFDFTWKMLKDKFNECGHVLYADIKMENGKSKGCGVVKFESPEVAERACRMMNGMKLSGREIDVRIDRNA
B2: disabled homolog 2, mitogen-responsive phosphoprotein (protein, UniProt O88797 1-768)
chain: MSNEVETSTTNGQPDQQAAPKAPSKKEKKKGSEKTDEYLLARFKGDGVKYKAKLIGIDDVPDARGDKMSQDSMMKLKGMAAAGRSQGQHKQRIWVNISLSGIKIIDEKTGVIEHEHPVNKISFIARDVTDNRAFGYVCGGEGQHQFFAIKTGQQAEPLVVDLKDLFQVIYNVKKKEEEKKKVEEANKAEENGSEALMTLDDQANKLKLGVDQMDLFGDMSTPPDLNNPTESRDILLVDLNSEIDTNQNSLRENPFLTNGVTSCSLPRPKPQASFLPESAFSANLNFFPTPNPDPFRDDPFAQPDQSAPSSFHSLTSADQKKANPGSLSTPQSKGPLNGDTDYFGQQFDQISNRTGKQEAQGGPWPYPSSQTQQAVRTQNGVSEKEQNGFHIKSSPNPFVGSPPKGLSVPNGVKQDLESSVQSSAHDSIAIIPPPQSTKPGRGRRTAKSSANDLLASDIFASEPPGQMSPTGQPAVPQANFMDLFKTSAPAPMGSGPLVGLGTVPVTPPQAGPWTPVVFTPSTTVVPGAIISGQPSGFGQPLVFGTTPAVQVWNQPSSFATAASPPPPAVWCPTTSVAPNTWSSTSPLGNPFQSSNIFPPSTISTQSFPQPMMSSVLVTPPQPPPRNGPLKDTLSDAFTGLDPLGDKEVKEVKEMFKDFQLRQPPLVPSRKGETPSSGTSSAFSSYFNNKVGIPQEHVDHDDFDANQLLNKINEPPKPAPRQGVLSGTKSADNSLENPFSKGFSSTNPSVVSQPASSDAHRSPFGNPFA
B3: synaptotagmin binding, cytoplasmic RNA interacting protein (protein, UniProt Q7TP47 1-533)
chain: MATEHVNGNGTEEPMDTTSAVIHSENFQTLLDAGLPQKVAEKLDEIYVAGQRKYGGPPPDSVYSGQQPSVGTEIFVGKIPRDLFEDELVPLFEKAGPIWDLRLMMDPLTGLNRGYAFVTFCTKEAAQEAVKLYNNHEIRSGKHIGVCISVANNRLFVGSIPKSKTKEQILEEFSKVTEGLTDVILYHQPDDKKKNRGFCFLEYEDHKTAAQARRRLMSGKVKVWGNVGTVEWADPIEDPDPEVMAKVKVLFVRNLANTVTEEILEKSFSQFGKLERVKKLKDYAFIHFDERDGAVKAMEEMNGKDLEGENIEIVFAKPPDQKRKERKAQRQAAKNQMYDDYYYYGPPHMPPPTRGRGRGGRGGYGYPPDYYGYEDYYDYYGYDYHNYRGGYEDPYYGYEDFQVGARGRGGRGARGAAPSRGRGAAPPRGRAGYSQRGGPGSARGVRGARGGAQQQRGRGVRGARGGRGGNVGGKRKADGYNQPDSKRRQTNNQNWGSQPIAQQPLQGGDHSGNYGYKSENEEFYQDTFGQQWK

The molecules below were run against GST-fused MVI globular tail domain (rat) (UniProt D4A5I9) (assay: affinity purification with mass spectrometry; GST-MVI globular tail (or GST alone) on Glutathione Sepharose 4B; PC12 homogenate pre-cleared with GST beads 2 h at 4°C; 50 mM Tris pH 7.5, 150 mM NaCl, 0.5% Triton X-100, 1 mM DTT, 5 mM EGTA; bound proteins by SDS-PAGE, in-gel trypsin digestion and tandem MS; only the target purified).

| binding | Molecule |
| --- | --- |
| binds | Protein disulfide-isomerase (from UniProt P04785 20-509) |
| binds | SP120 /heterogeneous nuclear ribonucleoprotein U (from UniProt Q6IMY8 1-798) |
| binds | heterogeneous nuclear ribonucleoprotein K (from UniProt P61980 1-463) |
| binds | histone (H1d) (from UniProt P15865 1-219) |
| binds | nucleolin, isoform CRA_d (from UniProt P13383 1-713) |
| binds | B1 |
| binds | B2 |
| binds | B3 |

No constants are given. Whether binding was seen depends on the method and setting. Binding seen in cells or lysates may run through a third protein. Here binding means that the protein was enriched with, or labelled near, the bait; the list need not be complete. Sequences can lack the tags named with a protein.
